Assay results published in publication PMC10897455.
These are yes or no findings as the source states them, for the method shown. In cells and extracts the contact can be indirect. Some binding calls cover weakened binding; strength is not graded here. Tags and fused reporters may be left off the sequences shown. Blank lines part the entries; values can stand above or below the binder they belong to.

Assays:
Conditions in all cases: remark: other sources report otherwise
[1] = biological target: T1, occludin (residues 1–522), FLAG- or Myc-tagged, in HEK293 cells (human), Q16625; assay: co-IP; trans, with or without a co-expressed third protein: HEK293T cells with the FLAG-tagged protein with or without HA–TMEM25 or HA–JAM-A co-cultured to confluency with cells expressing the Myc-tagged protein; anti-FLAG precipitation; immunoblot, band ratios
T1 chain: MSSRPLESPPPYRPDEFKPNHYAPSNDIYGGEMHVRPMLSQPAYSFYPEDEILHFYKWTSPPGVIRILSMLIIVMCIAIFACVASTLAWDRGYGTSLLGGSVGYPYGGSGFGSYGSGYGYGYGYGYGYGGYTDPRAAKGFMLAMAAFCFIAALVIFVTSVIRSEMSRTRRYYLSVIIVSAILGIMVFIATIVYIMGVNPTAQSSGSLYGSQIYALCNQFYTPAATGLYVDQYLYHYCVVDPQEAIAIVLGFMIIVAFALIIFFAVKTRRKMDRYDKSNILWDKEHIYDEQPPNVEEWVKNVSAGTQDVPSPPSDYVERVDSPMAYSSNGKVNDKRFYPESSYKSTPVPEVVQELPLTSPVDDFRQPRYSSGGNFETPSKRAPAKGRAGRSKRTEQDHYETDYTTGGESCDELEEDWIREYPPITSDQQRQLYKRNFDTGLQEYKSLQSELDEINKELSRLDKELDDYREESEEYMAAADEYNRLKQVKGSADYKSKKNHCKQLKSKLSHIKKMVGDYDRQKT

[2] = biological target: T2, claudin-1 (residues 1–211), FLAG- or Myc-tagged, in HEK293 cells (human), O95832; assay: as above
T2 chain: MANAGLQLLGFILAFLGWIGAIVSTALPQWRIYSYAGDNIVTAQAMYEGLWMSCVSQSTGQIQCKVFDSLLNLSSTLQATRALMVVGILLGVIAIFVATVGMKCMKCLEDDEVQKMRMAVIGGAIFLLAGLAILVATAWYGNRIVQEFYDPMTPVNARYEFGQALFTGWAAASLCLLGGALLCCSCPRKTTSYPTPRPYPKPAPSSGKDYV

[3] = biological target: T2, claudin-1 (residues 1–211), FLAG- or …; assay: co-IP; cis, with or without a co-expressed third protein: HEK293T cells triply transfected (HA–TMEM25, HA–JAM-A or Myc–Par3 as third protein), low density; anti-FLAG or anti-HA precipitation; immunoblot, band ratios

binding [1]: binds
B1: occludin (residues 1–522), FLAG- or Myc-tagged, in HEK293 cells, Q16625 1-522 (protein)
chain: T1 chain

binding [2]: binds
binding [3]: binds
B2: claudin-1 (residues 1–211), FLAG- or Myc-tagged, in HEK293 cells, O95832 1-211 (protein)
chain: T2 chain
